Experimental data taken from PubChem BioAssay AID1347075 (National Center for Advancing Translational Sciences (NCATS), 2019).
Among all 400,000 compounds or so, about 5,500 (1.4%) were called active. Inconclusive results, whose numbers are uncertain, are shown with a selection of clear calls. Calls follow the shape of the dose curve; as a rule, active = well fitted cell-killing curve with a large enough effect; inconclusive = small, poorly fitted or top-dose-only effect, or effect the other way; inactive = flat fitted curve, though single readings scatter. Potencies of inconclusive entries are doubtful fits and often do not repeat.

Assay: qHTS assay for MDR1-selective chemotherapeutics: Primary screen using the parental adenocarcinoma cell KB-3-1; also: nearly all actives have a fitted effect of over 60% in size
Conditions: KB-3-1 viability, CellTiter-Glo ATP luminescence, 72 h; activity change, negative = cytotoxic: at 46.1 µM (top of the series)
In short: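 Cells are dispensed, compounds pinned in, plates held at 37 °C for 72 h, then CellTiter-Glo is added and luminescence read after 10 minutes. Cell line: parental KB-3-1 in phenol-red-free DMEM, 10% FBS.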
% is scaled to controls: 0 for no effect and ±100 for the full control effect; potency is read from the fitted curve at half-maximal effect.

| SMILES | Potency | activity change, negative = cytotoxic |
| --- | --- | --- |
| COC(COC(N)=O)C1=C(N2CC2)C(=O)C(C)=C(N2CC2)C1=O (stereo not given) | active: 4.11 µM | – |
| CCOP(=O)(OCC)C(O)c1ccc(N(C)C)cc1 (stereo not given) | – | inactive: 0.853% |
| Brc1ccc2c(c1)C(OC1CN3CCC1CC3)c1ccccc1CS2 (stereo not given) | inconclusive: 20.6 µM [cytotoxic, single point] | – |
| COc1ccc(OC)c(NC(=O)Cn2cc(C(=O)c3ccccc3F)c3ccccc32)c1 | inconclusive: 7.31 µM [cytotoxic, partial curve, poor fit] | – |
| O=c1[nH]c2ccccc2n1C1CCN(CCCC(c2ccc(F)cc2)c2ccc(F)cc2)CC1 | inconclusive: 29.1 µM [cytotoxic, single point] | – |
| CCOC(=O)[C@]12Cc3cc(C)ccc3[C@H]1N(C(C)C)C(=O)c1ccccc12 | active: 4.11 µM | – |
| COC(=O)C1=C(c2ccc(OCc3ccccc3)cc2)C[C@@H]2CC[C@H]1N2C(=O)NCc1ccc2c(c1)OCO2 | inconclusive: 29.1 µM [cytotoxic, single point] | – |
| COc1ccc(-n2cnc3cc(C(=O)N4CCC5(CC4)OCCO5)ccc32)cc1 | active: 14.6 µM | – |
| ClCCN1CCSCC1 | – | inactive: 8.67% |
| O=C1NC(=O)N(Cc2ccc(F)cc2)C(=O)/C1=C\C=C\c1ccco1 | inconclusive: 23.1 µM [cytotoxic, single point] | – |
| CCSc1cc(C2C(C#N)=C(N)Oc3n[nH]c(C)c32)c(C)o1 (stereo not given) | inconclusive: 23.1 µM [cytotoxic, single point] | – |
| CCOc1ccc(-c2c(C)n(-c3ccc(OCC)cc3)c3[n+]2CCCCC3)cc1 | active: 1.64 µM | – |
| CCCC(C)C1(CC)C(=O)NC(=Nc2ccccc2)NC1=O (stereo not given) | inconclusive: 20.6 µM [cytotoxic, partial curve, poor fit] | – |
| COc1ccc(CCNC(=O)c2c(N)n(CCN3CCOCC3)c3nc4ccccc4nc23)cc1 | inconclusive: 29.1 µM [cytotoxic, single point] | – |
| O=C1NC(=O)C(Cc2ccccc2)(Cc2ccccc2)C(=O)N1Cc1ccccc1 | inconclusive: 20.6 µM [cytotoxic, single point] | – |
| Cc1cc[n+](Cc2ccccc2)cc1 | inconclusive: 32.6 µM [cytotoxic, single point] | – |
| CNS(=O)(=O)c1ccc(N=Cc2c(O)n(-c3cccc(C)c3)c(=O)[nH]c2=O)cc1 | – | inactive: -5.22% |
| CCC(NC(=O)OC(C)(C)C)C(=O)Oc1cc(C)cc2oc(=O)c3c(c12)CCC3 (stereo not given) | – | inactive: -27.7% |
| O=c1c2ccccc2nc(-c2ccc(Cl)cc2Cl)n1-c1ccncc1 | inconclusive: 32.6 µM [cytotoxic, single point] | – |
| Clc1cccc(N2Cc3cc(-c4ccccc4)ccc3-n3nncc3C2)c1 | inconclusive: 29.1 µM [cytotoxic, single point] | – |
| Cc1ccc2c(C)c3ccc4ccccc4c3c[n+]2c1 | inconclusive: 9.2 µM [cytotoxic, partial curve, poor fit] | – |
| COC(=O)C1=C(c2cc3ccccc3o2)C[C@@H]2CC[C@H]1N2C(=O)N1CCOCC1 | active: 5.8 µM | – |
| COc1ccc(-n2nc(C(=O)NCC(=O)N3CCC4(CC3)OCCO4)c3ccccc3c2=O)c(OC)c1 | – | inactive: 8.26% |
| O=C(N/N=C/c1c(O)n(C2CC2)c(=S)[nH]c1=O)c1ccccc1 | inconclusive: 32.6 µM [cytotoxic, single point] | – |

| SMILES | Potency | activity change, negative = cytotoxic |
| --- | --- | --- |
| COc1ccc(N2C(=O)CC(N3CCC(n4c(=O)[nH]c5ccccc54)CC3)C2=O)cc1 (stereo not given) | – | inactive: 15.7% |
| Cc1ccc(Cn2nc(C)c(C=O)c2Cl)cc1 | – | inactive: -3.04% |
| CCCCOc1ccc(CCN)cc1Cl | – | inactive: 0.0228% |
| CC(C)OCCCNC(=O)c1c(N)n(Cc2cccs2)c2nc3ccccc3nc12 | inconclusive: 25.9 µM [cytotoxic, single point] | – |
| OC(c1ccccc1)(c1ccccc1)C1CCNCC1 | – | inactive: 0% |
| COC(=O)C1=C(c2ccccc2OCc2ccccc2)C[C@@H]2CC[C@H]1N2C(=O)NCc1ccc(OC)c(OC)c1 | – | inactive: -15.6% |
| CC(=O)OC(C)(C)/C=C/C(=O)C(C)(O)C1[C@H](O)C[C@@]2(C)C3CC=C4C(CC[C@@H](O)C4(C)C)[C@]3(CO)C(=O)C[C@]12C (stereo not given in full) | inconclusive: 0.0092 µM [cytotoxic, full curve, poor fit] | – |
| O=C1CN=C(c2ccccc2Cl)c2cc(Cl)ccc2N1Cc1cccc(Cl)c1 | inconclusive: 20.6 µM [cytotoxic, partial curve, poor fit] | – |
| COc1cccc(-n2c(/C=C/c3ccc(O)c(O)c3)nc3ccccc3c2=O)c1 | – | inactive: -24.4% |
| CCCCC1(CCO)C(=O)NC(=S)NC1=O | inconclusive: 10.3 µM [rising, partial curve, poor fit] | – |
| COc1ccc(-n2c(/C=C\c3ccccc3F)nc3ccccc3c2=O)cc1OC | inconclusive: 29.1 µM [cytotoxic, single point] | – |
| COc1cccc(-n2c(/C=C/c3ccccc3O)nc3ccccc3c2=O)c1 | inconclusive: 20.6 µM [cytotoxic, single point] | – |
| Cc1cc(/C=C/c2ccnc3ccccc23)ccc1N(CCCl)CCCl | – | inconclusive: 0% |
| Cc1cccc(N=C2c3cc([N+](=O)[O-])ccc3-c3c2cc([N+](=O)[O-])cc3[N+](=O)[O-])c1 | active: 14.6 µM | – |
| O=c1[nH]c2ccccc2n1C1CCN(C(CCc2ccccc2)c2nnnn2C2CCCCC2)CC1 (stereo not given) | inconclusive: 29.1 µM [cytotoxic, single point] | – |
| ClCCN(CCCl)c1ccc(C=Nc2ccc(/C=C/c3ccnc4ccccc34)cc2)cc1 | – | inactive: -0.0871% |
| CCOP(=O)(OCC)C(NC(=O)c1ccc(C)cc1)=C(Cl)Cl | inconclusive: 29.1 µM [rising, single point] | – |
| O=C(c1ccccc1[N+](=O)[O-])N1CCC2(CC1)OCCO2 | – | inconclusive: -5.73% |
| COc1ccc(C=C2C(=O)NC(=S)NC2=O)cc1OC | – | inactive: -8.77% |
| COC(=O)C1=C(c2ccc(OCc3ccccc3)cc2)C[C@@H]2CC[C@H]1N2C(=O)NCc1ccccc1OC | active: 20.6 µM | – |
| COc1ccc(CC2NCC(O)C2OC(C)=O)cc1 (stereo not given) | active: 0.184 µM | – |
| COC(=O)C1=C(c2ccc(F)cc2OCc2ccccc2)C[C@@H]2CC[C@H]1N2C(=O)NCc1ccc(OC)cc1 | inconclusive: 18.4 µM [cytotoxic, single point] | – |
| CC1C2Cc3ccc(O)cc3[C@]1(C)CCN2CCc1ccccc1 (stereo not given in full) | – | inactive: 0% |
| CN1[C@@H]2CC[C@H]1CC(OC(=O)C1C=Nc3ccccc31)C2 (stereo not given in full) | inconclusive: 18.4 µM [cytotoxic, single point] | – |

| SMILES | Potency | activity change, negative = cytotoxic |
| --- | --- | --- |
| Cc1ccc(-c2cc(-c3ccccc3)cc(-c3ccccc3)[n+]2-c2ccccc2)cc1 | inconclusive: 29.1 µM [cytotoxic, single point] | – |
| C=C1C(=O)OC2C1CCC(C)C1(O)C=CC(=O)C21C (stereo not given) | inconclusive: 29.1 µM [cytotoxic, single point] | – |
| COc1cc([C@@H]2c3cc4c(cc3[C@@H](O)[C@H]3COC(=O)[C@H]23)OCO4)cc(OC)c1O | inconclusive: 0.231 µM [cytotoxic, full curve, poor fit] | – |
| C[N+](C)(C)CC1CCCc2ccccc2C1=O (stereo not given) | inconclusive: 29.1 µM [cytotoxic, single point] | – |
| NC(=S)c1cn(C2OC(CO)C(O)C2O)c2ncnc(N)c12 (stereo not given) | inconclusive: 0.0046 µM [cytotoxic, full curve, poor fit] | – |
| COC(=O)C12CCc3c(ccc4cc(OC)ccc34)C1=CC(=O)C2 (stereo not given) | inconclusive: 29.1 µM [cytotoxic, single point] | – |
| CCOC(=O)Cn1cc(C(=O)c2ccccc2)c2ccccc21 | – | inactive: 3.27% |
| Cn1cc(NC(=O)CCl)cn1 | inconclusive: 23.1 µM [cytotoxic, single point] | – |
| O=C(O)c1ccc([N+](=O)[O-])c([N+](=O)[O-])c1 | inconclusive: 32.6 µM [cytotoxic, single point] | – |
| Cc1ccc(-n2c(/C=C/c3ccccn3)nc3ccccc3c2=O)cc1 | inconclusive: 18.4 µM [cytotoxic, single point] | – |
| C=CCn1c(O)c(C(CC)=NCCCO)c(=O)[nH]c1=O | – | inactive: 10.8% |
| C[C@]12CC[C@H](O)CC1=CCC1C2CC[C@@]2(C)C1C[C@@H](O)[C@@H]2O (stereo not given in full) | – | inactive: 20.5% |
| C[C@]12CCC3C(CC[C@@H]4C[C@H](O)CC[C@]34C)C1CCC2=O (stereo not given in full) | – | inactive: -3.16% |
| CCCCc1nn2c(=O)cc(COC(=O)Cc3ccccc3)nc2s1 | – | inactive: 5.41% |
| CCN(CC)CCCOC(=O)C(OC(C)C)(c1ccccc1)c1ccccc1 | inconclusive: 32.6 µM [cytotoxic, single point] | – |
| COc1ccccc1OCCCn1cc(C(=O)C2CC2)c2ccccc21 | inconclusive: 29.1 µM [cytotoxic, single point] | – |
| O=C(O)C1(Br)CC12c1ccccc1-c1ccccc12 (stereo not given) | – | inactive: 16.8% |
| O=c1[nH]c(=S)[nH]c(O)c1/C=C1/C=c2ccccc2=N1 | inconclusive: 23.1 µM [cytotoxic, single point] | – |
| CCC(=NCCc1ccccc1)c1c(O)n(C2CCCCC2)c(=O)[nH]c1=O | inconclusive: 29.1 µM [cytotoxic, single point] | – |
| O=C(O)c1[nH]c(=O)[nH]c(=O)c1F | active: 7.31 µM | – |
| O=C1NCN(c2ccccc2)C12CCN(C(c1ccccc1OC(F)(F)F)c1nnnn1-c1ccc3c(c1)OCCO3)CC2 (stereo not given) | inconclusive: 29.1 µM [cytotoxic, single point] | – |
| COC(=O)C1=C(c2ccc3ccccc3c2)C[C@@H]2CC[C@H]1N2C(=O)NC1Cc2ccccc2C1 | inconclusive: 29.1 µM [cytotoxic, single point] | – |

Quoted from the listing.
Value of CCCCc1nn2c(=O)cc(COC(=O)Cc3ccccc3)nc2s1 under activity change, negative = cytotoxic: inactive: 5.41%
Value of C[C@]12CC[C@H](O)CC1=CCC1C2CC[C@@]2(C)C1C[C@@H](O)[C@@H]2O (stereo not given in full) under activity change, negative = cytotoxic: inactive: 20.5%
Value of Cc1ccc(-n2c(/C=C/c3ccccn3)nc3ccccc3c2=O)cc1 under Potency: inconclusive: 18.4 µM [cytotoxic, single point]
Value of C=CCn1c(O)c(C(CC)=NCCCO)c(=O)[nH]c1=O under activity change, negative = cytotoxic: inactive: 10.8%
Value of O=C(O)c1[nH]c(=O)[nH]c(=O)c1F under Potency: active: 7.31 µM
